According to PMC9166893:
No constants are given. Whether binding was seen depends on the method and setting. Binding seen in cells or lysates may run through a third protein. Some entries that bind do so weakly or less than the wild type.

Chains of the proteins cited; added tags and fusions are not shown.
UniProt P68400: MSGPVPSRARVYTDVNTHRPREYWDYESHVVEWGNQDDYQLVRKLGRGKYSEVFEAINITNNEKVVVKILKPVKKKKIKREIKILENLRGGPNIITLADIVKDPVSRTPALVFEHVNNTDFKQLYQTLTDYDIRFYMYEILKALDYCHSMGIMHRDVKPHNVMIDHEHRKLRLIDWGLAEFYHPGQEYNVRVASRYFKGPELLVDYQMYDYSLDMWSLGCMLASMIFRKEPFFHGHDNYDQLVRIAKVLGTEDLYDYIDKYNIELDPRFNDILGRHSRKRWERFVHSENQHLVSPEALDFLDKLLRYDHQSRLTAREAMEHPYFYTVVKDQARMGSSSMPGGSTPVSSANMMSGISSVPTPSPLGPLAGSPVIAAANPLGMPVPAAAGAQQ
UniProt P19139: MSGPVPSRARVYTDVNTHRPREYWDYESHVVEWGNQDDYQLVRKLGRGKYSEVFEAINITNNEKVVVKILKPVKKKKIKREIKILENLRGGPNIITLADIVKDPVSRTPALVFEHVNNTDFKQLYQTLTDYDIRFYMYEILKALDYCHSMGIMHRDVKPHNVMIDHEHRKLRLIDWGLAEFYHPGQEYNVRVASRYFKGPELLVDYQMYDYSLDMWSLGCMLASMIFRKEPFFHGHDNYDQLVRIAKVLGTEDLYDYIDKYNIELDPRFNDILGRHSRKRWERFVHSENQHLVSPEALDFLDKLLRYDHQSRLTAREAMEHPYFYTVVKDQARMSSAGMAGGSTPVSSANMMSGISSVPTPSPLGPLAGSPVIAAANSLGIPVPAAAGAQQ

Tests used:
[1] = target: protein kinase CK2α, endogenous in human U2OS cells (human (endogenous in U2OS)) (UniProt P68400); test: co-IP; whole cell lysate of U2OS cells, immunoprecipitation with anti-CK2α antibodies as in Fig. 5H, Western blot
[2] = target: protein kinase CK2α, endogenous in rat H9c2-CK2α-44 myoblasts (rat (endogenous in H9c2)) (UniProt P19139); test: co-IP; whole cell lysate of control H9c2-CK2α-44 cells, immunoprecipitation with rabbit polyclonal anti-CK2α serum or goat anti-CK2α antibody, Western blot

B1: CDC45, endogenous in human U2OS cells (protein, UniProt O75419 1-566)
chain: MFVSDFRKEFYEVVQSQRVLLFVASDVDALCACKILQALFQCDHVQYTLVPVSGWQELETAFLEHKEQFHYFILINCGANVDLLDILQPDEDTIFFVCDTHRPVNVVNVYNDTQIKLLIKQDDDLEVPAYEDIFRDEEEDEEHSGNDSDGSEPSEKRTRLEEEIVEQTMRRRQRREWEARRRDILFDYEQYEYHGTSSAMVMFELAWMLSKDLNDMLWWAIVGLTDQWVQDKITQMKYVTDVGVLQRHVSRHNHRNEDEENTLSVDCTRISFEYDLRLVLYQHWSLHDSLCNTSYTAARFKLWSVHGQKRLQEFLADMGLPLKQVKQKFQAMDISLKENLREMIEESANKFGMKDMRVQTFSIHFGFKHKFLASDVVFATMSLMESPEKDGSGTDHFIQALDSLSRSNLDKLYHGLELAKKQLRATQQTIASCLCTNLVISQGPFLYCSLMEGTPDVMLFSRPASLSLLSKHLLKSFVCSTKNRRCKLLPLVMAAPLSMEHGTVTVVGIPPETDSSDRKNFFGRAFEKAAESTSSRMLHNHFDLSVIELKAEDRSKFLDALISLLS
binding [1]: binds

B2: checkpoint kinase CHK1, endogenous in rat H9c2-CK2α-44 myoblasts (enzyme, UniProt Q91ZN7 1-476)
chain: MAVPFVEDWDLVQTLGEGAYGEVQLAVNRITEEAVAVKIVDMKRAIDCPENIKKEICINKMLNHENVVKFYGHRREGNIQYLFLEYCSGGELFDRIEPDIGMPEQDAQRFFHQLMAGVVYLHGIGITHRDIKPENLLLDERDNLKISDFGLATVFRHNNRERLLNKMCGTLPYVAPELLKRKEFHAEPVDVWSCGIVLTAMLAGELPWDQPSDSCQEYSDWKEKKTYLNPWKKIDSAPLALLHKILVENPSARITIPDIKKDRWYNKPLNRGAKRPRATSGGMSESSSGFSKHIHSNLDFSPINSGSSEENVKFSSSQPEPRTGLSLWDTGPSNVDKLVQGISFSQPTCPDHMLVNSQLLGTPGSSQNPWQRLVKRMTRFFTKLDADKSYQCLKETFEKLGYQWKKSCMNQVTVSTMDRRNNKLIFKINLVEMDEKILVDFRLSKGDGLEFKRHFLKIKGKLSDIVSSQKVWFPVT
binding [2]: binds

B3: ATRIP, endogenous in human U2OS cells (protein, UniProt Q8WXE1 1-791)
chain: MAGTSAPGSKRRSEPPAPRPGPPPGTGHPPSKRARGFSAAAAPDPDDPFGAHGDFTADDLEELDTLASQALSQCPAAARDVSSDHKVHRLLDGMSKNPSGKNRETVPIKDNFELEVLQAQYKELKEKMKVMEEEVLIKNGEIKILRDSLHQTESVLEEQRRSHFLLEQEKTQALSDKEKEFSKKLQSLQSELQFKDAEMNELRTKLQTSERANKLAAPSVSHVSPRKNPSVVIKPEACSPQFGKTSFPTKESFSANMSLPHPCQTESGYKPLVGREDSKPHSLRGDSIKQEEAQKSFVDSWRQRSNTQGSILINLLLKQPLIPGSSLSLCHLLSSSSESPAGTPLQPPGFGSTLAGMSGLRTTGSYDGSFSLSALREAQNLAFTGLNLVARNECSRDGDPAEGGRRAFPLCQLPGAVHFLPLVQFFIGLHCQALQDLAAAKRSGAPGDSPTHSSCVSSGVETNPEDSVCILEGFSVTALSILQHLVCHSGAVVSLLLSGVGADSAAGEGNRSLVHRLSDGDMTSALRGVADDQGQHPLLKMLLHLLAFSSAATGHLQASVLTQCLKVLVKLAENTSCDFLPRFQCVFQVLPKCLSPETPLPSVLLAVELLSLLADHDQLAPQLCSHSEGCLLLLLYMYITSRPDRVALETQWLQLEQEVVWLLAKLGVQSPLPPVTGSNCQCNVEVVRALTVMLHRQWLTVRRAGGPPRTDQQRRTVRCLRDTVLLLHGLSQKDKLFMMHCVEVLHQFDQVMPGVSMLIRGLPDVTDCEEAALDDLCAAETDVEDPEVECG
binding [1]: no binding
